Consider five molecules from article PMC8225996 (Frontiers in Cardiovascular Medicine, 2021).

Sequences of proteins named here, by UniProt entry; tags and fusion partners are left off. Residues count along the entry.
UniProt Q8R0I0, residues 18-805: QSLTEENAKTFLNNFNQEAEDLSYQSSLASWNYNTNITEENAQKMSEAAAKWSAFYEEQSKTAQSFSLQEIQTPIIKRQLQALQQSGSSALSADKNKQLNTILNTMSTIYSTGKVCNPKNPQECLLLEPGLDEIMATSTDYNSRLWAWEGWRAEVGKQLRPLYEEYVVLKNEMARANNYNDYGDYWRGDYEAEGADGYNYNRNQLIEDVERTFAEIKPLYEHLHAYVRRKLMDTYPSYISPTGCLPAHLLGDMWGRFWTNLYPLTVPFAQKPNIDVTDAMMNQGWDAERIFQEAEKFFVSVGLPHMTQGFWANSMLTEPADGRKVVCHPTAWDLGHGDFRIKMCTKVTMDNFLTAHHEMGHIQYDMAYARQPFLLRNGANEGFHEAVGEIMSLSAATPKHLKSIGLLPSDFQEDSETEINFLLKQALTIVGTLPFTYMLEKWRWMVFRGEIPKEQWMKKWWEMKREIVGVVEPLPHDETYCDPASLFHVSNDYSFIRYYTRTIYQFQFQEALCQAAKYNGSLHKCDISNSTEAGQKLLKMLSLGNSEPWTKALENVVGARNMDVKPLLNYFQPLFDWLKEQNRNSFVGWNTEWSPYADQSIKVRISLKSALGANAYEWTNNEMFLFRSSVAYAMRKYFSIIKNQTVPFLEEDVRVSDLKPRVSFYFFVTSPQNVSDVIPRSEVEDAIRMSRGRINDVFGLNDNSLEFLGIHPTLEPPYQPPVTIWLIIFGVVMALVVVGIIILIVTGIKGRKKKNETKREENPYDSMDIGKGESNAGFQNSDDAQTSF
UniProt P23242: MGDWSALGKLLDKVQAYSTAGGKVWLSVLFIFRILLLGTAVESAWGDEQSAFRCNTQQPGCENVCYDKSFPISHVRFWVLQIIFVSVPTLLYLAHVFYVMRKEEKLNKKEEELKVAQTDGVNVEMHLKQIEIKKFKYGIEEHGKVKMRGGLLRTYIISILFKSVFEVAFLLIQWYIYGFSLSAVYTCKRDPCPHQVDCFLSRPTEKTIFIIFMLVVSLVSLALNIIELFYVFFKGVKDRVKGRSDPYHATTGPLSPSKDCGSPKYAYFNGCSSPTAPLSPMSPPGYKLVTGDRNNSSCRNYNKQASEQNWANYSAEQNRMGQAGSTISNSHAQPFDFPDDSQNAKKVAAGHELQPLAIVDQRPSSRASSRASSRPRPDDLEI

These are yes or no findings as the source states them, for the method shown. Binding seen in cells or lysates may run through a third protein. Some entries that bind do so weakly or less than the wild type.

Assay [1] addresses T1, Rab5a (mouse (endogenous in primary brain microvascular endothelial cells)) (UniProt Q9CQD1).
T1 sequence: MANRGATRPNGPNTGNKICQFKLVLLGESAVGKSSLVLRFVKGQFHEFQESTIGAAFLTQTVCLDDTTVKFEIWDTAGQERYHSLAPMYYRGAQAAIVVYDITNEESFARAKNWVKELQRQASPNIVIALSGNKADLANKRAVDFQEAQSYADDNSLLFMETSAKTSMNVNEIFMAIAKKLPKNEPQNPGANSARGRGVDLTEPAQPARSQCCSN
In words: co-IP; Rab5a antibody (2 ug) with 150 ug lysate of control endothelial cells treated with 10 ug/ml Spike for 12 h; Catch and Release spin columns, 18 h at 4 C; Western blot for the partners. (In general: A western blot detects proteins with antibodies after separation by electrophoresis.)

Assay [2] has as its target T1, Rab5a (mouse (endogenous in primary brain microvascular endothelial cells)). In words: co-IP; Rab5a antibody (2 ug) with 150 ug lysate of untreated control endothelial cells; Catch and Release spin columns, 18 h at 4 C; Western blot for the partners.
In assay [3] the target is Angiotensin converting enzyme 2 (mouse (endogenous in primary brain microvascular endothelial cells)) (UniProt Q8R0I0). In words: co-IP; ACE2 antibody (2 ug) with 150 ug lysate of untreated control endothelial cells; Catch and Release spin columns, 18 h at 4 C; blots probed for Rab5a.
Assay [4] shares this target. Kind of assay: co-IP; control and diabetic (db/db) endothelial cells treated with non-targeting or Rab5a siRNA for 24 h; precipitating antibody not stated for this experiment.

As for “Angiotensin converting enzyme 2 (from UniProt Q8R0I0 18-805) (receptor)”, the binding result in assay [1] is reported as “binds”; in assay [2] it was “no binding (condition: cells without Spike treatment)”. As to Connexin-43 (from UniProt P23242 1-382), the binding result in assay [2] was “binds”.

B1: Rab5a (natural protein, UniProt Q9CQD1 1-215, looked up)
chain: T1 sequence
notes: Rab5a, Rab GTPase of the endolysosomal trafficking pathway; endogenous in mouse brain microvascular endothelial cells; source: endogenous, mouse primary brain microvascular endothelial cells (C57BL/6 control; db/db diabetic), in lysate
As to B1, the binding result in assay [3] is given as “binds weakly”; in assay [4], “binds”.

B2: JAM-A (protein, UniProt O88792 27-300)
chain: KGSVYTAQSDVQVPENESIKLTCTYSGFSSPRVEWKFVQGSTTALVCYNSQITAPYADRVTFSSSGITFSSVTRKDNGEYTCMVSEEGGQNYGEVSIHLTVLVPPSKPTISVPSSVTIGNRAVLTCSEHDGSPPSEYSWFKDGISMLTADAKKTRAFMNSSFTIDPKSGDLIFDPVTAFDSGEYYCQAQNGYGTAMRSEAAHMDAVELNVGGIVAAVLVTLILLGLLIFGVWFAYSRGYFERTKKGTAPGKKVIYSQPSTRSEGEFKQTSSFLV
Regarding B2, the binding entry in assay [1] was “binds”.

B3: PECAM-1 (protein, UniProt Q08481 18-727)
chain: EENSFTINSIHMESLPSWEVMNGQQLTLECLVDISTTSKSRSQHRVLFYKDDAMVYNVTSREHTESYVIPQARVFHSGKYKCTVMLNNKEKTTIEYEVKVHGVSKPKVTLDKKEVTEGGVVTVNCSLQEEKPPIFFKIEKLEVGTKFVKRRIDKTSNENFVLMEFPIEAQDHVLVFRCQAGILSGFKLQESEPIRSEYVTVQESFSTPKFEIKPPGMIIEGDQLHIRCIVQVTHLVQEFTEIIIQKDKAIVATSKQSSEAVYSVMAMVEYSGHYTCKVESNRISKASSIMVNITELFPKPKLEFSSSRLDQGELLDLSCSVSGTPVANFTIQKEETVLSQYQNFSKIAEESDSGEYSCTAGIGKVVKRSGLVPIQVCEMLSKPSIFHDAKSEIIKGHAIGISCQSENGTAPITYHLMKAKSDFQTLEVTSNDPATFTDKPTRDMEYQCRADNCHSHPAVFSEILRVRVIAPVDEVVISILSSNEVQSGSEMVLRCSVKEGTSPITFQFYKEKEDRPFHQAVVNDTQAFWHNKQASKKQEGQYYCTASNRASSMRTSPRSSTLAVRVFLAPWKKGLIAVVVIGVVIATLIVAAKCYFLRKAKAKQKPVEMSRPAAPLLNSNSEKISEPSVEANSHYGYDDVSGNDAVKPINQNKDPQNMDVEYTEVEVSSLEPHQALGTRATETVYSEIRKVDPNLMENRYSRTEGSLNGT
B3: the binding entry is on record as “binds” in assay [1] and “no binding (condition: cells without Spike treatment)” in assay [2].
